Experiments:
[1] = Antiproliferative activity against human DG75 cells after 72 hrs by Alamar blue assay; type: functional, cell-based; settings: DG-75, 72 h
In short: (§1)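 MUTU-I (24 h) and DG-75 (72 h) Burkitt lymphoma cells were grown in RPMI-1640 with 10% FBS at 37 °C, seeded at 1-5×10^4 cells/well and exposed to four concentrations (screen range 1 µM–1 mM) in triplicate. Alamar Blue was added for 4-6 h at 37 °C in the dark, then fluorescence was read at 590 nm (ex 544 nm). Viability was taken relative to untreated cells after background subtraction. EC50 came from sigmoidal non-linear regression (Hill slope 1). Miconazole 10 µM was the positive control.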

[2] = Antiproliferative activity against human MUTU-I cells after 24 hrs by Alamar blue assay; type: functional, cell-based; in short: as §1

Work on CNCCCC12CCC(c3ccccc31)c1ccccc12 [MAPROTILINE] yielded an EC50 [1] of 37.5 µM and an EC50 [2] of 15.8 µM.

Source: ChEMBL document CHEMBL3102711, “Synthesis and antiproliferative action of a novel series of maprotiline analogues” (Eur J Med Chem, 2014)
